{
  "source": "patent US10137212B2",
  "about": "“Tetrahydroxamate chelators of zirconium89 and niobium90 for use in diagnostic applications” (priority 2013, dated 2018)",
  "data": [
    {"assay": "complexation of ligands with ^89Zr, yield by ITLC-SG", "assay_type": "physicochemical", "details": "~50 MBq ^89Zr reacted with 38 nmol of ligand", "description": "All solutions described below were prepared with de-ionized water purified through a Chelex column prior to use. Stock solutions of ^89Zr at pH 7 were prepared as follow: to 450 μL of the ^89Zr solution in oxalic acid were added 450 μL of a 1M Na2CO3 solution and the pH was adjusted to 7 by addition of small aliquots of a 0.1 M Na2CO3 or 0.1 M HCl. 450 μL of water containing 3% bovine serum albumin were then added. To 45 μL of stock solution (˜1.3 MBq of ^89Zr in a typical experiment) were added 7.5 nmol (5 μL) of L5, L6, L7, C5, C6, or C7 in DMSO or the natural siderophore desferrioxamine B (DFB) mesylate in de-ionized water. These solutions were incubated at desired temperatures and time of reaction and analyzed by ITLC-SG using a 50 mM EDTA (ethylenediaminetetraacetic acid) solution adjusted to pH=7 in de-ionized water as eluant, and analyzed with a Typhoon 8600 scanner (GE Healthcare) in phosphorimaging mode. The percentage of the activity bound to the ligand after TLC was calculated by converting the TLC scan into a chromatogram and integrating the peak corresponding to the spot at the bottom of the TLC. Activity ratios were averaged out of a minimum of 2 TLCs for each condition. The influence of time and temperature on the complexation yield of ^89Zr by L5, L6, L7, C5, C6 and C7 and DFB is shown in Table 1. […]", "units": {"specific activity achieved": "MBq/nmol"}, "values": [
      {"smiles": "CC(=O)N(O)CCCCCNC(=O)CCC(=O)N(O)CCCCCNC(=O)CCC(=O)N(O)CCCCCN", "note": "[DFB, desferrioxamine B, reference compound]", "specific activity achieved": 1.31},
      {"smiles": "O=C1CCCCCN(O)C(=O)CCCCCN(O)C(=O)CCCCCN(O)C(=O)CCCCCN1O", "note": "[Ligand C5]", "specific activity achieved": 0.30},
      {"smiles": "O=C1CCCCCCN(O)C(=O)CCCCCCN(O)C(=O)CCCCCCN(O)C(=O)CCCCCCN1O", "note": "[Ligand C6]", "specific activity achieved": 1.21},
      {"smiles": "O=C1CCCCCCCN(O)C(=O)CCCCCCCN(O)C(=O)CCCCCCCN(O)C(=O)CCCCCCCN1O", "note": "[Ligand C7]", "specific activity achieved": 1.31},
      {"smiles": "CCCCC(=O)N(O)CCCCCC(=O)N(O)CCCCCC(=O)N(O)CCCCCC(=O)N(O)CCC", "note": "[Ligand L5]", "specific activity achieved": 0.96},
      {"smiles": "CCCCCC(=O)N(O)CCCCCCC(=O)N(O)CCCCCCC(=O)N(O)CCCCCCC(=O)N(O)CCC", "note": "[Ligand L6]", "specific activity achieved": 1.26},
      {"smiles": "CCCCCCC(=O)N(O)CCCCCCCC(=O)N(O)CCCCCCCC(=O)N(O)CCCCCCCC(=O)N(O)CCC", "note": "[Ligand L7]", "specific activity achieved": 1.31}
    ]}
  ]
}
